This is an account of results in paper doi:10.1101/2020.02.07.938951.

Results are given in words; binding and its absence hold for the method and conditions named. For some assays here: In cells and extracts the contact can be indirect. Some entries that bind do so weakly or less than the wild type. Tags and fused reporters may be left off the sequences shown.

The target in assay [1] is T1, LexA-PIF4 (PHYTOCHROME … FACTOR 4 in pEG202) (Arabidopsis thaliana) (UniProt Q8W2F3).
T1 sequence: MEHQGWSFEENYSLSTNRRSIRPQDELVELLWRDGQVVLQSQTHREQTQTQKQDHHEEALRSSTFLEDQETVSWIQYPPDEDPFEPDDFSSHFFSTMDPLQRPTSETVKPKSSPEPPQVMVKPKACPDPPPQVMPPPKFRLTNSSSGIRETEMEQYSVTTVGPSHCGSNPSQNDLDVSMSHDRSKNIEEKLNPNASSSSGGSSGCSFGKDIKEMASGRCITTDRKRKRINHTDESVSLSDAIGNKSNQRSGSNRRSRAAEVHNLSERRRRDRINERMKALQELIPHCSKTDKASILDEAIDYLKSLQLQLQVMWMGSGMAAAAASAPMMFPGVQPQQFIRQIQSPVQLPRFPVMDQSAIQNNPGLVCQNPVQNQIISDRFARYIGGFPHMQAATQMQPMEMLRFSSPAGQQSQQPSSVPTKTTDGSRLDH
Put plainly: two-hybrid.

In assay [2] the target is T2, GST-PIF4 (Arabidopsis thaliana) (UniProt Q8W2F3).
T2 sequence: T1 sequence
As to the kind of experiment: pull-down.

B1: AD-SPA1 (SUPPRESSOR OF PHYA-105 1 in pJG4-5) (protein, UniProt Q9SYX2 1-1029)
chain: MPVMERVAEETVATNNIQLKARVDDVPCNKLDARHNDMVIQSETANSDCPGSSAHRNVDLTKPPPPEEAAGAKLSVEELTLGNYRIVQGSNNTNVDSPRAGKFEHLYRLARGSAFRAGDGDLDSQPRDMDQMLSRIRQQLAGAPSERQNLKPFMSRRSDQNLEAFSERLRAAGENSIMNAPALISEGVQMKTPVSSSNFSQLLLKRAMKGKGVVGKNQETPPEFVSDQDLGSKEKKLDISKSPTPHDVLPLKSSPKGNGMVSHGDGNHSKSSIGISLREFLRSSYAKREKRHGLCLFRQLVELVDSAHSKRLFLLDLRPSLFTLVPSKKLRYIGNFGKNDLESDVDEDLNRRRPVVEESSSGGRDSKKRKMDLHLNSPGNQLQATSTGRPFKRKSPVIDLNMVDARNPDSCELQQQDYIKNLSVSSVSRKQSMSTWLEEQWYTCPEEINGEDIGEKSNIYALGVLLFELLCHCESGEMHAAMMADLRHRILPPTFLSKYPKEAGFCLWLLHPEPSSRPSARDILKSELICEDDSVKSTAAAEEISELLLHFLSSLEVQKKKKASKLLQDIQTLEDDIKEAERRYSSNVSLVRSHGAIEKRVQSSPLDEHCTTSSALFVPTANTDRLMSNIRQLEDAYFFMRSQINLSSSAATARSDKTLKDRDRCSENQNENQDMSTKGKSSDQLEVFFEGLCKFARYSKFETCGTIRSGDLLNSASVVCSLSFDPDEEHIAAAGISKKIKIFDFNAFMNESVGVHYPLVEMVNKSKLSCVCWNSYIKNYLASTDYDGVVQIWDAGTGQGFSQYTEHQKRAWSVDFSPSDPTKFVSGSDDCSVKLWSINEKRSLGTIWSPANVCCVQFSSYSNHLLAFGSADYKVYCYDLRYVKTPWCTLAGHEKAVSYVKFMDSETIVSASTDNSLKLWNLNKTNSSGLSPGACSLTYKGHTNQKNFVGLSVLDGYIACGSETNEVYSYYKSLPMPMTSYKFGSVDPISGNEYFDDNGQFVSSVCWRKKSNMLVAANSTGNMKLLKLV
For the molecule B1, the binding entry in assay [1] is on record as “binds”.

B2: MBP-SPA1 (protein, UniProt Q9SYX2 1-1029)
chain: B1 chain
On to B2, for which the binding entry in assay [2] was “binds”.
